# No constants are given. Whether binding was seen depends on the method and setting. Binding seen in cells or lysates may run through a third protein. Some binding calls cover weakened binding; strength is not graded here.
# Chains of the proteins cited; added tags and fusions are not shown.
# UniProt P03146: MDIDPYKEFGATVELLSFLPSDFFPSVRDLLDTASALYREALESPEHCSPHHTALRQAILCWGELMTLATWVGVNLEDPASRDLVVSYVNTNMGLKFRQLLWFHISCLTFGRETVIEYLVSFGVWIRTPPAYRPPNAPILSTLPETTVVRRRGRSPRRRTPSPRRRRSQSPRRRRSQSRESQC
# UniProt Q8N6T7: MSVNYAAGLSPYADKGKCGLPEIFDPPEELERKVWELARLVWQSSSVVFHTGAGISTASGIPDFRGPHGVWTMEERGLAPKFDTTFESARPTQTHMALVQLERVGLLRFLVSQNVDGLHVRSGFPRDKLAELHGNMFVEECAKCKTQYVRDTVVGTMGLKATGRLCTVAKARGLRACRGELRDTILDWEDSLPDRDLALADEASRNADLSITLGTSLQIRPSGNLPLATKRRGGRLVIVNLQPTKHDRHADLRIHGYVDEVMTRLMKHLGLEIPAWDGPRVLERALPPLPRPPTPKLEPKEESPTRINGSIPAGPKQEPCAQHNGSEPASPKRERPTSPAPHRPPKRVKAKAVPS
# UniProt Q9NRC8: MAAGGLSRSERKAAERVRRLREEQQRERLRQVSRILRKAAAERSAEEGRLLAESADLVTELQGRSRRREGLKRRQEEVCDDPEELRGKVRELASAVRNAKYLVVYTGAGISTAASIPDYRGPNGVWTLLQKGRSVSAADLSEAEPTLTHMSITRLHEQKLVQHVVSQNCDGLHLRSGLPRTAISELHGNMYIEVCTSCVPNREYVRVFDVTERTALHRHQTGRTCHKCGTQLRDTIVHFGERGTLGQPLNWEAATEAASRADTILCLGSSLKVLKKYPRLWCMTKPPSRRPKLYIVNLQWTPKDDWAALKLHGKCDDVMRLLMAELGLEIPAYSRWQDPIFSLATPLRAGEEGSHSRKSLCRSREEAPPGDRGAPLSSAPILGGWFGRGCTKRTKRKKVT
# UniProt P03165: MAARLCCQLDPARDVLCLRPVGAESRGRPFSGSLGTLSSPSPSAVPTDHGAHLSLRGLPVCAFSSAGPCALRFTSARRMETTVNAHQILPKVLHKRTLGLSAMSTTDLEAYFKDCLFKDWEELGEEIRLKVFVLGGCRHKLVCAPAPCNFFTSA
# How the values were obtained:
# [1] = molecular target: HBcAg (Hepatitis B virus) (UniProt P03146); test: co-IP; 293FT cells; co-IP performed mutually (both directions) between SIRT6 and HBcAg
# [2] = molecular target: HBcAg (Hepatitis B virus) (UniProt P03146); test: co-IP; transfected HEK293T cells, 48 h after transfection; co-IP buffer 50 mM Tris-HCl pH 7.4, 150 mM NaCl, 5 mM EDTA, 10% glycerol, 0.5% NP-40, sonicated; antibody-conjugated beads at 4 °C; western blotting
# [3] = molecular target: SIRT6 (Sirtuin 6) (human) (UniProt Q8N6T7); test: as above
Substance,binding [1],binding [2],binding [3]
SIRT6 (Sirtuin 6) (from UniProt Q8N6T7 1-355) (enzyme),binds,binds,–
SIRT7 (from UniProt Q9NRC8 1-400) (enzyme),–,binds weakly,–
X protein (HBxAg) (from UniProt P03165 1-154),–,–,no binding
